Some results were stated once for a whole list of compounds, not compound by compound. For at least one compound, name, drawing or mass did not settle the structure.
Columns and labels:
[1] = tested on: Pyrenophora teres; assay: Activity against net blotch of barley caused by Pyrenophora teres, 1 day protective application; format: in vivo; settings: 250 ppm, barley seedlings, visual after 6 days, untreated plants 90% infected
[2] = tested on: Botrytis cinerea; assay: Activity against gray mold on bell pepper leaves caused by Botrytis cinerea, 1 day protective application; format: in vivo; settings: 250 ppm, visual after 5 days, untreated plants 100% infected

Cc1ccc(-c2ncc3c(n2)CCC3)nc1-c1ccoc1 [Example 1]
infection of the entire leaf area [1]: at most 20%
extent of the fungal infection on the leaves [2]: at most 20%

Source: patent US20090105072A1, “2-(Pyridin-2-Yl)-Pyrimidines for Use as Fungicides” (priority 2007, published 2009)
